# Data taken from publication PMC9837939.
# Protein sequences, listed by entry. Tags and fused reporters are not part of them. Lines headed by an entry give the natural chain unless they say otherwise; changes in a name come on top. Residues count along the entry.
# UniProt O00425: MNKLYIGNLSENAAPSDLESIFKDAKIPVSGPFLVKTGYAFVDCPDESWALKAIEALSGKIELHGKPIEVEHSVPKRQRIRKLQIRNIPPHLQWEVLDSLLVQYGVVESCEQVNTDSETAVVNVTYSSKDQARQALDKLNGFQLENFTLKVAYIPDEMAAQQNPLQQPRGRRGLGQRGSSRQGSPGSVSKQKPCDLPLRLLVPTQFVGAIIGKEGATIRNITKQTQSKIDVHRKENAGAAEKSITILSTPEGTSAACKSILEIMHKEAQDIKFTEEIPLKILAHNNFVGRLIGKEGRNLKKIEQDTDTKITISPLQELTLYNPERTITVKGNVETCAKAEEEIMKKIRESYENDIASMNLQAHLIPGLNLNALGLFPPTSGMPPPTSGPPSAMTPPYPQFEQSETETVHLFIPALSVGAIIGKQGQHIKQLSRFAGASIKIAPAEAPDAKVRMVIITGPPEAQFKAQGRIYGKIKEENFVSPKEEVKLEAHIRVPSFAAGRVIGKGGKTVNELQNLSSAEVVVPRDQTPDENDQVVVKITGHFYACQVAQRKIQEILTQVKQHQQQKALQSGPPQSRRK
# UniProt Q9ULQ0: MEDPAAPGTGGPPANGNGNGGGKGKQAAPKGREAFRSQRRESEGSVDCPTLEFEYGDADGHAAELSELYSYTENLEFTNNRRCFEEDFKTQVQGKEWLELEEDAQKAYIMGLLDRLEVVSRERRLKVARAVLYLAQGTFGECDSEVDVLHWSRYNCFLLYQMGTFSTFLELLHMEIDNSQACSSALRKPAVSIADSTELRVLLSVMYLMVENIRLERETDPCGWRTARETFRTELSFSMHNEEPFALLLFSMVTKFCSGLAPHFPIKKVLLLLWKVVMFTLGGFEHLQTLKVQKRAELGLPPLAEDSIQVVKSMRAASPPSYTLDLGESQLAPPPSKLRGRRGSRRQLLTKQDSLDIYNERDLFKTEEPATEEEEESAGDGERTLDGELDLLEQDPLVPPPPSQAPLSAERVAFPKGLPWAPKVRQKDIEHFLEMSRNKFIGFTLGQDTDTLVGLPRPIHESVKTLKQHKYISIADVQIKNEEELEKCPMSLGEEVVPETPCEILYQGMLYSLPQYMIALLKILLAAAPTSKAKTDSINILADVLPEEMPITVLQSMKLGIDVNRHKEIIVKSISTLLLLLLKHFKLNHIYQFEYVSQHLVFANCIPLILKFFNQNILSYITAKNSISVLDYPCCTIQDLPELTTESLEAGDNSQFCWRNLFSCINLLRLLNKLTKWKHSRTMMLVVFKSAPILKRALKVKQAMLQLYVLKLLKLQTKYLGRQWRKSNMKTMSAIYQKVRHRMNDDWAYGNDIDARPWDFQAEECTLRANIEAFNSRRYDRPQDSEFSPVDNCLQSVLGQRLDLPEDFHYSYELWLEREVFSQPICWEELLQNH
# STRIP2 (339-834) truncation: residues 339-834 of Q9ULQ0
# No constants are given. Whether binding was seen depends on the method and setting. Binding seen in cells or lysates may run through a third protein. Some binding calls cover weakened binding; strength is not graded here.
# Key:
# [1] = molecular target: GST-IGF2BP3 fusion protein (UniProt O00425); assay: pull-down; GST-IGF2BP3 on beads, incubated with whole 293T cell lysate transfected with STRIP2-flag at 4 °C overnight; western blot; only the target purified
# [2] = molecular target: 3xFlag-STRIP2, expressed in 293T cells (UniProt Q9ULQ0); assay: co-IP; immunoprecipitation with truncated STRIP2 or myc-tagged full length and truncated IGF2BP3; cells not given
# [3] = molecular target: IGF2BP3-myc, expressed in A549 cells (UniProt O00425); assay: co-IP; immunoprecipitation from transfected cells (PC9 with Flag-STRIP2; A549 with IGF2BP3-myc; 293T with Flag-STRIP2 and IGF2BP3-myc), western blot
# [4] = molecular target: STRIP2 (339-834) truncation (UniProt Q9ULQ0); assay: co-IP; immunoprecipitation with truncated STRIP2 or myc-tagged full length and truncated IGF2BP3; cells not given
# [5] = molecular target: 3xFlag-STRIP2, expressed in 293T cells (UniProt Q9ULQ0); assay: co-IP; immunoprecipitation from transfected cells (PC9 with Flag-STRIP2; A549 with IGF2BP3-myc; 293T with Flag-STRIP2 and IGF2BP3-myc), western blot
# [6] = molecular target: Flag-STRIP2 (striatin interacting protein 2), expressed in PC9 cells (UniProt Q9ULQ0); assay: as above
substance,measurement,setting,value
"3xFlag-STRIP2, expressed in 293T cells (from UniProt Q9ULQ0 1-834)",binding,[1],binds
"myc-tagged truncated IGF2BP3 (199-407), KH1 and KH2 domains (from UniProt O00425 199-407) (domain or fragment)",binding,[2],binds
endogenous STRIP2 of A549 cells (from UniProt Q9ULQ0 1-834),binding,[3],binds
"IGF2BP3-myc (myc-tagged full length IGF2BP3), expressed in 293T cells (from UniProt O00425 1-579)",binding,[4],binds
same,binding,[5],binds
endogenous IGF2BP3 (insulin-like growth factor 2 mRNA-binding protein 3) of PC9 cells (from UniProt O00425 1-579),binding,[6],binds
